Data taken from publication PMC10704431, “A complex with poly(A)-binding protein and EWS facilitates the transcriptional function of oncogenic ETS transcription factors in prostate cells” (The Journal of Biological Chemistry, 2023).

Sequences of proteins named here, by UniProt entry; tags and fusion partners are left off. Residues count along the entry.
UniProt Q01844, residues 356-656: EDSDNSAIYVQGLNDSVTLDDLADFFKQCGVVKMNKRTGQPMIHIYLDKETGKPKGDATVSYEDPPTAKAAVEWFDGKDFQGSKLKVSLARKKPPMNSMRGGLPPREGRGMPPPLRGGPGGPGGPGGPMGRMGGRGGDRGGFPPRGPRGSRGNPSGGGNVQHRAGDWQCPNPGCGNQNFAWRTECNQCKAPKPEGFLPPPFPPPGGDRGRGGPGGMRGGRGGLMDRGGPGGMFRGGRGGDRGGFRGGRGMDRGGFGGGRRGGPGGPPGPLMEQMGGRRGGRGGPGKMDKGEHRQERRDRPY
UniProt P11940: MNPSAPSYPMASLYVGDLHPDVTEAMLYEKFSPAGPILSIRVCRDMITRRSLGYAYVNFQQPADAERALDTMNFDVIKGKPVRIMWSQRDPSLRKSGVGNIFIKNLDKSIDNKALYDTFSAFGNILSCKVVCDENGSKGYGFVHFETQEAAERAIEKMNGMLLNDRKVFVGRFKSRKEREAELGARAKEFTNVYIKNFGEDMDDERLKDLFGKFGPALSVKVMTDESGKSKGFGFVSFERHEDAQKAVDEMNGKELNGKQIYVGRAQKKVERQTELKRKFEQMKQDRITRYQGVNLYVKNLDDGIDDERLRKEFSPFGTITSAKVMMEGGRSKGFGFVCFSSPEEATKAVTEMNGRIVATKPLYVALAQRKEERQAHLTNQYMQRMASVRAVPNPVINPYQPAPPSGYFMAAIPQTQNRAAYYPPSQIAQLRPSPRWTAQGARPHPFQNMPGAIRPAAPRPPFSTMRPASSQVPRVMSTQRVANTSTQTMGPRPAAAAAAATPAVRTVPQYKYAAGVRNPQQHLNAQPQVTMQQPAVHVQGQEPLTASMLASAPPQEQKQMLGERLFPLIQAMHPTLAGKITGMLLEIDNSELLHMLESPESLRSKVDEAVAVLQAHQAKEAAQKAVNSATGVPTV

Target: hemagglutinin-tagged ctEWS expressed in PC3 cells (UniProt Q01844)
Assay: affinity purification with mass spectrometry; ctEWS immunoprecipitated from PC3 cells expressing both ctEWS and ERG; mass spectrometry; probable contaminants filtered out

cytoplasmic poly-adenylate-binding protein 1 (PABPC1), endogenous in PC3 cells (from UniProt P11940 1-636)
binding: binds

These are yes or no findings as the source states them, for the method shown. In cells and extracts the contact can be indirect. Here binding means that the protein was enriched with, or labelled near, the bait; the list need not be complete.
